# Screening data, single-dose tests

The filed quantity is “Percent Effect” (%).
The controls that fix the scale are not given in the record; negative values are as filed.
The compounds are a random part of those screened.
Two or more numbers in one place are separate tests of the same structure; such repeats can differ widely.

Mtb glucose medium: 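Phenotypic screen: M. tuberculosis growth, glucose 7H9 medium, 3 days; the read-out is not stated. Tested at 50 µM. The record gives no direction; compounds that gave an IC50 in retests scored well above the rest, so higher reads as more growth inhibition. About 69,000 compounds were tested under these conditions; 1.1% (about 760) showed 50% or more at least once.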
Mtb cholesterol medium: 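Growth of Mycobacterium tuberculosis over 4 days (cholesterol / DPPC medium with tyloxapol); the read-out is not stated. Concentration: 50 µM. The record gives no direction; compounds that gave an IC50 in retests scored well above the rest, so higher reads as more growth inhibition. Size under these conditions: about 69,000 compounds, about 370 of them at 50% or above in at least one test.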

SMILES | Mtb glucose medium | Mtb cholesterol medium
CCc1nc(CN2CCN(C(=O)C3(C#N)CCCC3)CC2)cs1 | -11.67 & 14.34 | -4.973
COc1ccc2nc(CNC(=O)C3CC4(CCNCC4)CN3C)[nH]c2c1 (configuration not stated) | -4.292 | -6.38
C=C(C)COc1cccc(C(=O)NC(C)c2nnn[nH]2)c1 (configuration not stated) | -34.32 & -8.21 | -7.335
Fc1ccc(CN2CCCC3(COCCN(Cc4c[nH]nn4)C3)C2)cc1.O=C(O)C(F)(F)F.O=C(O)C(F)(F)F (configuration not stated) | -0.3586 & 4.654 | 10.56
Cc1ccc(C(O)CNC(=O)c2cccnc2O)cc1 (configuration not stated) | 25.32 | 3.382
COC(=O)c1cccc2nc([C@H]3CCN(Cc4ccccc4F)C3)oc12 | 16.57 & 7.362 | 9.946
COc1ccccc1CN1CCCC(n2cccn2)C1 (configuration not stated) | -17.92 & -4.956 | -18.07
Cc1ccsc1C(=O)N1C[C@@H](C(=O)O)[C@H](C(C)C)C1 | -6.602 | -5.962
Cc1ccc(CNc2nc(O)cc(C3CC(=O)N(C)C3)n2)cc1 (configuration not stated) | 16.6 | -0.6175
CSC1(CNc2ncc(Br)cn2)CCOCC1 | 23.53 | 8.007
Cc1nn(C)c2nc(NCCN3CCCC(C(N)=O)C3)sc12 (configuration not stated) | 5.853 | -1.44
Cc1nn(Cn2ccc(C(=O)N3CCCC3)n2)c(C)c1Cl | 14.56 & 13.4 | 5.644
O=C(NCC1CCCO1)c1coc(Cn2cnc3ccccc32)n1 (configuration not stated) | -0.3007 & -3.729 | -6.352
CC1c2ncc(COc3cccnc3)n2CCN1C(=O)C1=CCCC1.O=C(O)C(F)(F)F (configuration not stated) | 8.537 | 1.687
CN1CCCC(CCC(=O)NCCCn2ncc3ccccc32)C1 (configuration not stated) | -53.94 | -24.51
CCNC(=O)c1ccc2ccc(N(CC)CC)n2c1 | -4.5 & 3.374 | -6.048
CCN(Cc1cccc2c1OCO2)C(=O)NC1CC1 | 13.31 | 13.27
CCn1cnnc1CNC(=O)N1CCOCC1 | 3.447 | 8.015
CN(Cc1cc(C[C@@H]2C[C@H](N)C2(C)C)no1)c1ccccc1 | 6.607 & 6.21 | 4.939
Cc1cc(C)n(CC2CCCCN2C(=O)c2ccc3[nH]nnc3c2)n1 (configuration not stated) | -19.75 | 4.786
Cc1cc(CNc2cccc(Cl)c2C)no1 | 5.9 | 20.88
Cc1nccn1CC1CCCN1S(=O)(=O)Cc1ccon1 (configuration not stated) | -5.539 | -9.29
CCCNC(=O)c1cnc(N(C)C)nc1COC | 14.51 | 18.31
CC(O)CN1CCN(CCOCC(F)(F)F)CC1 (configuration not stated) | -12.24 & 1.324 | 2.572
COCC(=O)N1CCCC(c2cc(C(F)F)n3ncnc3n2)C1.Cl (configuration not stated) | 15.61 | 8.473
CNc1nc2c(c(C(=O)N3CCCC3)n1)CN(Cc1cc(C)no1)CC2 | -29.86 | -28.52
Cc1nc2c(c(N(C)Cc3ccccc3-n3cccn3)n1)CCNCC2 | 0.4145 | 13.41
Cn1cc(CCC(=O)N2CCCN(c3ncccc3C#N)CC2)cn1 | -23.85 | -20.64
Cc1ccc(C(=O)N2CCN(Cc3ccsc3)CC2)n1C | -3.684 | 1.467
CC(Cn1cccn1)NCc1nc(-c2cccc(Cl)c2)no1 (configuration not stated) | 32.43 | 22.16
OC1(CN2CCC(Cc3ncccn3)CC2)CCOCC1 | -32.56 | -32.51
Nc1nc2c(c(=O)[nH]1)CCN(C(=O)c1ccccc1N1CCCC1)C2 | -11.37 | -9.008
Cc1cc(-c2nn(C)c(Cl)c2CN2CC[C@@](O)(C3CCC3)[C@H](C)C2)no1 | -29.36 | -43.41
[H][C@@]12CN(C(=O)c3ccsc3)C[C@]1([H])C(=O)N(CC)C2 | 1.878 & -3.619 | -2.434
CN1CCN(S(=O)(=O)c2ccc(C(=O)N3CC[C@@H](O)C3)cc2)CC1=O | 5.107 & 2.488 | 3.357
[H][C@]12CC[C@]([H])(CN(Cc3ccccc3C#N)C1)N(CC(=O)N(C)C)C2=O | 12.86 | 0.6426 & -3.322
COc1ccc(-n2c(SC)nc(O)c(Cc3ccccc3)c2=O)cc1 | 11.42 | 0.8884
c1csc(CNCC2COCc3c(-c4ccsc4)nnn3C2)n1 (configuration not stated) | 3.014 | -1.751
CCN(CC)S(=O)(=O)c1cc(NC(=O)CCc2cscn2)ccc1C | -20.86 | -17.97
CN(Cc1cnn(C)c1)C(=O)CCc1ccc2c(c1)OCO2 | 2.986 | -0.4418
O=C(O)C(F)(F)F.O=C(O)C(F)(F)F.[H][C@@]12CC(COc3ccccn3)C[C@@]1([H])N(Cc1cccc(C)n1)CCO2 (some centres not stated) | 4.033 | 19.39
CCn1nnc2c1C(COCCN(C)C)CN(Cc1ccco1)C2.O=C(O)C(F)(F)F.O=C(O)C(F)(F)F (configuration not stated) | -22.54 | -2.97
CCN(CC)C(=O)[C@@H]1C[C@@H](NC(=O)c2cccn2C2CC2)CN1C | -0.2939 | -6.901
Cc1nc(CNCC2CCCN(C(=O)OC(C)(C)C)C2)cs1 (configuration not stated) | 11.36 | -15.51
O=c1cc(-c2cc(O)cc(CCC3CCCCN3)c2)cc[nH]1 (configuration not stated) | -22.39 | -12.96
NS(=O)(=O)c1ccc(CNCC(=O)NCc2ccc(Cl)cc2Cl)cc1 | -13.38 | -15.97
CCC(CNC(=O)CCn1cncn1)N1CCc2ccccc2C1 (configuration not stated) | -32.52 | -17.36
Cc1ccc(-c2cn(C3CCN(C(=O)[C@H]4CCCO4)CC3)nn2)cc1 | 3.858 & 9.009 | 19.81
CSCC(=O)N[C@H]1CC[C@H](Nc2nccc(-c3cccnc3)n2)C1 | -20.26 | -33.34
O=C(O)Cn1ccc(=O)c2ccc(Cl)cc21 | -12.92 | -5.97
O=C(CNC(=O)c1ccccc1F)NCc1ccccn1 | -35.27 | -22.3
CCCn1c(C)c(CC(=O)NCCC(N)=O)c2c1CC(C)(C)CC2=O | -15.57 | -20.26
CC(C)Oc1ncc(C(=O)N2CCc3ccc(O)cc3C2)cc1Cl | 5.069 & 7.928 | 3.881
COc1ccccc1C(=O)NC(c1ccccn1)[C@H]1CC[C@H](CN)CC1 (some centres not stated) | 32.88 | -5.123
CS(=O)(=O)NCc1cc2n(n1)CCCN(Cc1nc3ccccc3[nH]1)C2 | -30.25 | 9.54
CC(=O)N1CCCn2nc(CNc3cc(C)ncn3)cc2C1 | -22.01 | -35.32
CN1CCCN(C[C@H]2C[C@H](CO)CN(Cc3cccnc3N)C2)CC1 | 17.5 | -52.82
CCc1noc(CN2CCN(C(=O)N(CC)CC)CC2)n1 | 15.09 | -11.52
CS(=O)(=O)NC(=O)c1nnn(-c2cccc(F)c2)c1C1CC1 | -43.71 | -14.49
CC(=O)CCCC(=O)N(Cc1ccsc1)CC(C)C | -40.01 | -11.79
O=C(C1CC(=O)N(C2CCCC2)C1)N1CCN(CCn2cccc2)CC1 (configuration not stated) | 9.507 | 5.448
O=C(O)C(F)(F)F.O=C1COC2(CCN(c3ncccn3)CC2)CN1Cc1ccccn1 | -59.71 | -32.29
COCCNC(=O)c1cc(S(=O)(=O)N2CCCCCC2)cs1 | -10.1 | -13.93
N#Cc1ncn(CCC(=O)Nc2ccccc2F)n1 | -3.791 | 1.699
CS(=O)(=O)CCOCCNc1ccc(C(F)(F)F)cc1C#N | 28.14 | 38.21
CC(C)Cn1ccc2c(NC(=O)c3n[nH]c4c3CCC4)cccc21 | 23.44 | 9.517
CCOc1ncnc2c1CCN(c1cc(C(F)(F)F)ncn1)CC2 | 8.156 & 4.946 | -5.427

For reference, 6 entries once more:

SMILES,Mtb glucose medium,Mtb cholesterol medium
COc1ccccc1C(=O)NC(c1ccccn1)[C@H]1CC[C@H](CN)CC1 (some centres not stated),32.88,-5.123
CSCC(=O)N[C@H]1CC[C@H](Nc2nccc(-c3cccnc3)n2)C1,-20.26,-33.34
CS(=O)(=O)NCc1cc2n(n1)CCCN(Cc1nc3ccccc3[nH]1)C2,-30.25,9.54
Cc1ccc(C(O)CNC(=O)c2cccnc2O)cc1 (configuration not stated),25.32,3.382
CN1CCCC(CCC(=O)NCCCn2ncc3ccccc32)C1 (configuration not stated),-53.94,-24.51
CN1CCCN(C[C@H]2C[C@H](CO)CN(Cc3cccnc3N)C2)CC1,17.5,-52.82

From ChEMBL document CHEMBL3988442, “University of Dundee, Small-Polar-MMV Screening Library” (2021).